This is one part of the list.
Experiment: autophagy modulators in MEF cells, primary screen, imaging, high-content, MEF GFP-LC3 (AID 463193);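 note: cell loss after 18 h compound exposure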
Conditions: MEF GFP-LC3 puncta imaging, measured here: cell loss, nuclei count, at 10 µM

Compound	toxicity
COc1ccc(NC2CCN(CCc3ccccc3)CC2)c(OC)c1	9.73%
COc1ccc(C(=O)NCC2(N3CCCCC3)CCCCC2)c(OC)c1OC	21.3%
O=C(NCC1(N2CCOCC2)CCCCC1)c1cc2ccccc2o1	-29.7%
CCOC(=O)N1CCC(Nc2ccc(OC)cc2)CC1	-5.05%
O=C(OC1CN2CCC1CC2)C1c2ccccc2Oc2ccccc21 (stereo not given)	7.17%
CN(C)c1cccc(C(=O)NCC2(N3CCCCC3)CCCCC2)c1	9.76%
COc1ccc(CN(CCCl)CCCl)cc1Cl	-7.03%
CC(C)c1ccc(NC2CCN(C(=O)OC(C)(C)C)CC2)cc1	-1.76%
CN1CCC(Nc2cccc(F)c2)CC1	5.94%
O=C(NCC1(N2CCCCC2)CCCCC1)c1cccc([N+](=O)[O-])c1	-2.61%
N#CC1(Nc2ccccc2)CCN(CCc2ccccc2)CC1	36.2%
CN1CCN(CCOC(=O)C(O)(c2ccccc2)c2ccccc2)CC1	-6.45%
COc1ccc(NC2CCN(C(=O)OC(C)(C)C)CC2)cc1	1.72%
O=C(NCC1(N2CCOCC2)CCCCC1)c1cc(=O)[nH]c2ccccc12	-2.77%
N#Cc1ccc(C(=O)NCC2(N3CCCCC3)CCCCC2)cc1	-10.2%
c1ccc(CN2CCC(Nc3ccccc3)CC2)cc1	12.1%
COc1ccc(C(=O)NCC2(N3CCOCC3)CCCCC2)cc1OC	-0.911%
N/C(=N\O)c1c(N)no[n+]1[O-]	-7.29%
O=C(OC1CN2CCC1CC2)C1c2ccccc2C=Cc2ccccc21 (stereo not given)	-0.54%
CCOc1ncccc1C(=O)NCC1(N2CCOCC2)CCCCC1	10.5%
CC(C)(C)OC(=O)N1CCC(Nc2ccccc2)CC1	-1.03%
CCC(CO)(C(=O)OC1CN2CCC1CC2)c1ccccc1 (stereo not given)	-8.08%
COc1cc(OC)cc(C(=O)NCC2(N3CCOCC3)CCCCC2)c1	0.615%
CCN1CCC(Nc2cccc(F)c2)CC1	10.6%
CN(C)c1ccc(C(=O)NCC2(N3CCCCC3)CCCCC2)cc1	2.05%

From PubChem BioAssay AID463193 (University of Pittsburgh Molecular Library Screening Center, 2010)
